Data as given in PubChem BioAssay AID1259308 (NCATS, 2017)
The whole screen tested about 59,000 reagents; this is a part drawn at random. About 1,510 of them (2.6%) were called active. 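Calls use total luciferase alone and ignore viability, so some active siRNAs may act by altering cell number.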 Reagents against one gene are numbered here. Not all columns of the deposit are shown.

- Assay: 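Candidate targets for better recombinant protein yield in mammalian cells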 (primary screen)
- Cells: human HEK293 embryonic kidney cells stably expressing firefly luciferase (HEK-CMV-Luc2-Hygro)
- Reagent: single siRNA against human genes, 0.8 pmol siRNA per well
- Time to read-out: 72 h
- Measured: 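Reporter luminescence and viable-cell signal on separate replicate plates, given as percent of non-targeting control and median/MAD z-scores, plus per-cell luciferase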
- Reading the numbers: total luciferase, z-score and total luciferase, % of control: higher = more reporter protein produced
- Call rule: 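An siRNA counts as active if its total luciferase robust z-score exceeds 3; genes with two or more such siRNAs out of three were retested with fresh siRNAs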
- Meaning of the calls: active = raised luciferase; inactive = no rise

What is on record for GABBR1 #1?
total luciferase, z-score: 0.733; total luciferase, % of control: 96.5; call: inactive

For GABBR1 #2, what was measured?
total luciferase, z-score: -2.07; total luciferase, % of control: 40.8; call: inactive

What is on record for GABBR1 #3?
total luciferase, z-score: -0.22; total luciferase, % of control: 77.5; call: inactive

For BRCA1 #1, how do the results read?
total luciferase, z-score: 0.958; total luciferase, % of control: 101; call: inactive

For BRCA1 #2, what was measured?
total luciferase, z-score: 1.15; total luciferase, % of control: 105; call: inactive

What did the screen give for BRCA1 #3?
total luciferase, z-score: 0.163; total luciferase, % of control: 85.1; call: inactive

Targets above whose target name begins with G or g:
GABBR1 #1: total luciferase, z-score = 0.733; total luciferase, % of control = 96.5; call = inactive
GABBR1 #2: total luciferase, z-score = -2.07; total luciferase, % of control = 40.8; call = inactive
GABBR1 #3: total luciferase, z-score = -0.22; total luciferase, % of control = 77.5; call = inactive

Next reagents:
For TSPAN6 #1, what does the deposit list?
total luciferase, z-score: -0.239; total luciferase, % of control: 77.1; call: inactive

For TSPAN6 #2, what does the deposit list?
total luciferase, z-score: 1.36; total luciferase, % of control: 109; call: inactive

What is on record for TSPAN6 #3?
total luciferase, z-score: 0.374; total luciferase, % of control: 89.3; call: inactive

What is on record for FCN1 #1?
total luciferase, z-score: -0.932; total luciferase, % of control: 63.3; call: inactive

What is on record for FCN1 #2?
total luciferase, z-score: 0.961; total luciferase, % of control: 101; call: inactive

With FCN1 #3, what was measured?
total luciferase, z-score: 2.07; total luciferase, % of control: 123; call: inactive
